Protein sequences, listed by entry. Tags and fused reporters are not part of them. Lines headed by an entry give the natural chain unless they say otherwise; changes in a name come on top.
UniProt Q9CTN5: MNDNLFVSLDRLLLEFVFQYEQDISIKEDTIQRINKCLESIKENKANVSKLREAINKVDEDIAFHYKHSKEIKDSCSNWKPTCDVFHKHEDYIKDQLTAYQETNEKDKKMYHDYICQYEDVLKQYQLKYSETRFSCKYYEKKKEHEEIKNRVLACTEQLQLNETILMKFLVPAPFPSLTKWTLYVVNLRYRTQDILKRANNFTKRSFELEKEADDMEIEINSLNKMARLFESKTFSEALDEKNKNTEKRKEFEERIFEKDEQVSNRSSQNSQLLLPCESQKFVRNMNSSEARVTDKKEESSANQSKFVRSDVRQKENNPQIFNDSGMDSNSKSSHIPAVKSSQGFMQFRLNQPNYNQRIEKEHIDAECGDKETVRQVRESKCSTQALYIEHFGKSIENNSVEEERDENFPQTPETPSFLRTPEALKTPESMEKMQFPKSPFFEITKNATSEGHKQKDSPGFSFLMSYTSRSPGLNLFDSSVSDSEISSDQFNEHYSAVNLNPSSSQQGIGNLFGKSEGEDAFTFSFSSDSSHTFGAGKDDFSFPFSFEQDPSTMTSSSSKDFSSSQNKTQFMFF

In paper PMC5095591:

B1: Myc-SYCE1 (protein, UniProt Q9D495 1-329)
chain: MATRPQPLGMEPEGSADLLHGPEGARGQYGSTQKIEDLMDMVKKLQKVGSLEPRIEVLINRINEVQQAKKKASEELGEAQTVWDNLQKELDLLREEKVRLKDILNRKEETLRIMQLHCQEKESEAQRKHSMLQECKERISFLNSQIDKEKAKLRKLRLDFEEHLETLMSQHKDTLEFHKPEHLTKEMCVLDSSKEQLLKEEKLMKVKLEDVRQRLCALGGPEGSSSLIEGLFLRSHEAAAAMQMFKDENKKAEEFLEAAAQQHEQLQQRCHQLQQKRQRLKEELEKHGVQILAHSTQNEEDSSWRMASPKPVEVHEETAQDQERPSSRT
B2: SYCP1 (protein, UniProt Q62209 1-993)
chain: MEKQKPFTLFVPPRLSSSQVSAVKPQTAGGDSNYFKTANKCTEGDFGVPFTMSSRENIDKDPAFQKLSILPMLEQVANSGSCHYQEGVNDSDFENSEPMSRLYSKLYKEAEKIKKWKVSIESELKQKENKLQENRKIIEAQRKAIQELQFENEKVSLKLEEEIQENKDLIKENNATIHWCNLLKETCARSAEKTNKYEYEREETRQVYVDLNSNIEKMILAFEELRVQAENARLEMHFKLKEDHEKIQHLEEEYQKEVNNKENQVSELLIQSAEKENKMKDLTFLLEESRDKANQLEEKTKLQDENLKELSEKKDHLTSELEDIKMSMQRSMSTQKALEEDLQIATKTISQLTEVKEAQMEELNKAKTTHSFVVTELKATTCTLEELLRTEQQRLEKNEDQLKLITVELQKKSNELEEMTKFKNNKEVELEELKNILAEDQKLLDEKKQVEKLAEELQEKEQELTFLLETREKEVHDLQEQVTVTKTSEQHYLKQVEEMKTELEKEKLKNTELTASCDMLLLENKKFVQEASDMALELKKHQEDIINCKKQEERLLKQIENLEEKEMHLRDELESVRKEFIQQGDEVKCKLDKSEENARSIECEVLKKEKQMKILESKCNNLKKQVENKSKNIEELHQENKTLKKKSSAEIKQLNAYEIKVSKLELELESTKQRFEEMTNNYQKEIENKKISEGKLLGEVEKAKATVDEAVKLQKEIDLRCQHKIAEMVALMEKHKHQYDKIVEERDSELGLYKNREQEQSSAKIALETELSNIRNELVSLKKQLEIEKEEKEKLKMAKENTAILKDKKDKKIQASLLESPEATSWKFDSKTTPSQNISRLSSSMDSGKSKDNRDNLRASAKSILPTTVTKEYTVKTPTKKSIYQRENKYIPTGGSNKKRKTAFEFDVNSDSSETADLLSLVSEEDVSNRLYDNNPPDSHLLVKTPKQTPLSLSTPASFMKFGSLKKMREDRWTTIAKIDRKRRLKEAEKLFS
B3: SYCE3 (protein, UniProt B5KM66 1-88)
chain: MADSDPGERSYDNMLKMLSDLNKDLEKLLEEMEKISVQATWMAYDMVVMRTNPTLAESMRRLEDAFLNCKEEMEKNWQELLTETKRKQ
B4: SYCE2 (protein, UniProt Q505B8 1-171)
chain: MERHGVAAPPVELKDQEPPAIVESGEHRQSENHEETPGSVAPSASCQLPGPFSSLDSSIETLKKKAQELIENINESRQKDHALMTNFRDSLKMKVSDLTEKLEERMYQVYSHHSKIIQERLQEFTQKMAKINHLEMELKQVCQTVETVYKDLCVQSEVPTCEEQNYKDGEC
B5: TEX12 (protein, UniProt Q9CR81 1-123)
chain: MMANHLVKPDSRNCKRARELEPQVSDSPQVSSLGKSESSLSEASGLFYKEEALEKDLSDMSKEINLMLSTYAKILSERAAVDASYIDEIDGLFKEANIIENFLVQKREFLKQRFTVITNTLHK
B6: SYCP3 (protein, UniProt P70281 1-254)
chain: MLRGCGDSDSSPEPLSKHLKMVPGGRKHSGKSGKPPLVDQPKKAFDFEKDDKDLSGSEEDVADEKAPVIDKHGKKRSAGIIEDVGGEVQNMLEKFGADINKALLAKRKRIEMYTKASFKASNQKIEQIWKTQQEEIQKLNNEYSQQFMNVLQQWELDIQKFEEQGEKLSNLFRQQQKIFQQSRIVQSQRMFAMKQIHEQFIKSLEDVEKNNDNLFTGTQSELKKEMAMLQKKVMMETQQQEMANVRKSLQSMLF
B7: REC8 (protein, UniProt Q8C5S7 1-591)
chain: MFYYPNVLQRHTGCFATIWLAATRGSRLVKREYLNVNVVKTCEEILNYVLVRVQPPVAGLPRPRFSLYLSAQLQIGVIRVYFQQCQYLVEDIQHILEHLHRAQLRIRIDMEEADLPSLLLPNCLAMMETLEDAPEPFFGKMSVDPRLPSPFDIPQIRHLLEAATPEKTRKETLPEATPDPRKPDRTLATVQSPEVITLQEAEPIRMLQIEGEQDLPEISRGDLELLIAEKDDAILLEERQRGRLLRQRRASLPLDESREEPRALEGAGLVSALSPPAPAQVEGIQEALPGQVFPPEVQKMTGWEPGALLTEVTPPQELRLPAPPSTEKRLPSLQRPLPRRHRRRQLLFWDKETQISREKFEEQLQTGAHCWEYPVAQPPKRMLTSPAELFRTPTLSGWLPPELLGLWTHCAQVPQRMLRQRPQLETEETVEEERAADEEERRKTEALSEIEVLREAQEPSGPLMLSSELSLEAAEDEKSRTSLIPPEWWAWSEEGQPEPPALPMLPELPEVPMEMPPRPELSSEAVLRAVALKLQANKELDFSSLVPPLSPRKLASRVFYLLLVLSTQKILLVEQQKPYGPLLIRPGPKFP
B8: Sororin (protein, UniProt Q9CPY3 1-264)
chain: MAERRTRSGGAAQRSGPRTSLTKPSKSSKRKSGSDLPNSFSEIWPRTTPAVPVRKAIVLKKIVAHAVEVPDVHTVRRSPRISFILEKENNPPLKVPTKEDLFKTCSVPGTPSSTPVLYTQNVEPDSGEAELDSRDLEMSQKVRRSYSRLQSLGCASTSTPGRRSFFGFEGPDDLPGVSPVVCSKLIETPKVPAKDLVPARTKDLVPDSTKDLVPARTLPGISPPVVKEKRKKKVPEILKSELDKWAVAMNAEFEAAEQFELLIE

These molecules were tested against GFP-SIX6OS1 (mouse) (UniProt Q9CTN5) (assay: co-IP; HEK 293T cells transiently co-transfected; whole cell extracts cleared with protein G Sepharose; immunoprecipitation with anti-Flag, anti-EGFP or anti-Myc antibody; western blotting).
For SIX6OS1-Flag (from UniProt Q9CTN5), the binding was “binds”. For B1, the binding was “binds”. With B2 the binding was “no binding”. For B3, the binding was “no binding”. For B4, the binding was “no binding”. With B5 the binding was “no binding”. For B6, the binding was “no binding”. With B7 the binding was “no binding”. In the case of B8, the binding is reported as “no binding”.

These molecules were tested against T1, Myc-SYCE1 (mouse) (UniProt Q9D495) in the same assay as above.
T1 sequence: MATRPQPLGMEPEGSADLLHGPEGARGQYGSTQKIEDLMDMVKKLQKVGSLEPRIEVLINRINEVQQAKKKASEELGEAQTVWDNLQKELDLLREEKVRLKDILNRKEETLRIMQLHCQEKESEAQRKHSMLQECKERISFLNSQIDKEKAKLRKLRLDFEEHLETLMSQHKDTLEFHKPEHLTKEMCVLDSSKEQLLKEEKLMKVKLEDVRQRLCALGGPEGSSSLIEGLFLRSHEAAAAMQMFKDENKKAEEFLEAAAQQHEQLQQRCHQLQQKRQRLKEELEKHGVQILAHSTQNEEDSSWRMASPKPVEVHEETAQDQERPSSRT
For GFP-SIX6OS1 (from UniProt Q9CTN5), the binding was “binds”.

What follows are molecules tested against SIX6OS1 C-terminal half (287-574) (mouse) in the same assay as above.
With B1 the binding was “no binding”.

The molecules below were run against SIX6OS1 N-terminal half (1-286) (mouse) (UniProt Q9CTN5) in the same assay as above.
In the case of B1, the binding is reported as “binds”.

Results are given in words; binding and its absence hold for the method and conditions named. In cells and extracts the contact can be indirect. For part of these data: Binding can be weak; no strength is given. Sequences can lack the tags named with a protein.
